In the experiment the test system is BDF1 mice, P388 leukemia ip, median survival T/C. Nature of the experiment: NCI In Vivo Anticancer Drug Screen. Data for tumor model P388 Leukemia (intraperitoneal) in B6D2F1 (BDF1) mice. The note with it: T/C endpoint: median survival time, higher T/C = longer survival. In short, it runs like this:
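Transplantable tumour in mice; compound vs vehicle dosing; survival scored; ratio of treated to control reported.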

The mark [1] stands for this setting: dose: 6.25 mg/kg/injection, schedule: Q01DX009 (ip), vehicle: saline.
Where [2] appears, read: dose: 12.5 mg/kg/injection, schedule: Q01DX009 (ip), vehicle: saline.
[3] abbreviates: dose: 50.0 mg/kg/injection, schedule: Q01DX009 (ip), vehicle: saline with Tween-80.
Where [4] appears, read: dose: 200.0 mg/kg/injection, schedule: Q01DX009 (ip), vehicle: saline with Tween-80.

The list does not hold the whole screen: it is rich in T/C values a quarter to a half above the control, in often repeated tests (any T/C) and in doses without a T/C. Other doses and runs of a compound stand elsewhere. T/C is the treated group as % of the vehicle group. Some doses have a count of surviving animals in place of a T/C: the source files T/C as zero there, which appears to mark a toxic dose or a test without result, not a measured value. Some doses without a T/C left all or most animals alive at the check, yet need not have been tolerated: the source hardly ever lists a survival T/C far under the control, and the zero likely stands for such cases as well. Survivors were counted at the toxicity check, usually on the fifth day, unless a day is given; later deaths do not show. Schedule codes are those of the source, taken here to give the interval after Q, in days (D) or hours (H), and the number of doses after X. Some doses were run more than once; the values are given in rising order. Where survival is the endpoint, the PubChem record calls one and a half times the control and up active, and a quarter to a half above the control has no call in these data; cut-offs in other NCI protocols can differ.

Take `CS/C(=C\c1ccc2cc(C)ccc2[n+]1C)N1CCOCC1`: the T/C is, setting by setting: (dose: 3.13 mg/kg/injection, schedule: Q01DX009 (ip), vehicle: saline) 130 % of control; under setting [1], 141 and 149 % of control. The survivor count runs as follows: under setting [2], 0 of 6 and 1 of 6; under setting [3], 0 of 6; (dose: 100.0 mg/kg/injection, schedule: Q01DX009 (ip), vehicle: saline with Tween-80) 0 of 6; under setting [4], 0 of 6.
Turning to `CN=C(N)c1ccc(N=C(N)c2ccc(-c3ccc(C(N)=Nc4ccc(C(N)=NC)cc4)cc3)cc2)cc1`, the T/C was 134 % of control under setting [1]; 135 % of control (dose: 8.0 mg/kg/injection, schedule: Q01DX009 (ip), vehicle: saline); 135 % of control (dose: 12.0 mg/kg/injection, schedule: Q01DX009 (ip), vehicle: saline); 138 % of control under setting [2]. Further, the survivor count (dose: 25.0 mg/kg/injection, schedule: Q04DX003 (ip), vehicle: saline) is listed as 2 of 6; the survivor count (dose: 50.0 mg/kg/injection, schedule: Q04DX003 (ip), vehicle: saline) is 0 of 6; the survivor count (dose: 100.0 mg/kg/injection, schedule: Q04DX003 (ip), vehicle: saline) is 0 of 6; the survivor count (dose: 200.0 mg/kg/injection, schedule: Q04DX003 (ip), vehicle: saline) is on record as 0 of 6; the survivor count (dose: 400.0 mg/kg/injection, schedule: Q04DX003 (ip), vehicle: saline) is recorded as 0 of 6.
In the case of `CCCN(CCC)CCSC(=S)NCCOC`, the survivor count under setting [4] is on record as 3 of 6.
With `CCCC/C=C/CO`, the survivor count under setting [4] was 3 of 6.
On to `CC1OC(OC2CC(O)C3(CO)C4C(O)CC5(C)C(C6=CC(=O)OC6)CCC5(O)C4CCC3(O)C2)C(O)C(O)C1O` (centres undefined), for which the survivor count (dose: 6.0 mg/kg/injection, schedule: Q01DX010 (ip), vehicle: saline) is 3 of 6.
In the case of `CCCOP(=O)(OCCC)C(OC(=O)C(C)C)=C(C)C`, for the setting “dose: 400.0 mg/kg/injection, schedule: Q04DX003 (ip), vehicle: saline with Tween-80”, the survivor count was 2 of 6.
With `C=CCO`, the survivor count is reported as 2 of 6 (dose: 100.0 mg/kg/injection, schedule: Q01DX001 (ip), vehicle: saline with Tween-80); 0 of 6 (dose: 200.0 mg/kg/injection, schedule: Q01DX001 (ip), vehicle: saline with Tween-80); 0 of 6 (dose: 400.0 mg/kg/injection, schedule: Q01DX001 (ip), vehicle: saline with Tween-80).
On to `CC(CS(=O)(=O)O)NC(CO)(CO)CO` (centres undefined), for which the survivor count (dose: 200.0 mg/kg/injection, schedule: Q01DX009 (ip), vehicle: saline) is reported as 6 of 6.
With `N#CC(C#N)=C1SCS1`, under “dose: 12.5 mg/kg/injection, schedule: Q01DX009 (ip), vehicle: saline with Tween-80”, the survivor count was 3 of 3.
As to `CO[C@H]1CC=C2CCN3CCCc4cc5c(cc4[C@]23C1)OCO5`, the survivor count (dose: 40.0 mg/kg/injection, schedule: Q01DX009 (ip), vehicle: alcohol) is reported as 5 of 6 and the survivor count (dose: 80.0 mg/kg/injection, schedule: Q01DX009 (ip), vehicle: alcohol) was 6 of 6.
With `S=c1nc[nH]c2nc[nH]c12`, the survivor count by setting is: (dose: 15.0 mg/kg/injection, schedule: Q01DX010 (ip), vehicle: saline) 6 of 6; (dose: 120.0 mg/kg/injection, schedule: Q01DX010 (ip), vehicle: saline) 6 of 6; (dose: 200.0 mg/kg/injection, schedule: Q01DX009 (ip), vehicle: alkali diluted with saline) 2 of 8. Further, the T/C is, setting by setting: (dose: 40.0 mg/kg/injection, schedule: Q01DX009 (ip), vehicle: alkali diluted with saline) 97, 104, 112, 113, 117 % of control; (dose: 43.2 mg/kg/injection, schedule: Q01DX009 (ip), vehicle: alkali diluted with saline) 125 % of control; under setting [3], 127 % of control; (dose: 60.0 mg/kg/injection, schedule: Q01DX009 (ip), vehicle: alkali diluted with saline) 108, 110, 113, 114, 126 % of control; (dose: 60.0 mg/kg/injection, schedule: Q01DX010 (ip), vehicle: saline) 133 and 136 % of control.

The record behind these values is PubChem BioAssay AID328 (DTP/NCI, 2004).
